# Results as given in article PMC8651787, “Tankyrase-1-mediated degradation of Golgin45 regulates glycosyltransferase trafficking and protein glycosylation in Rab2-GTP-dependent manner” (Communications Biology, 2021).
# Amino acid sequences for entries named in this document (tags omitted). A change or cut given only in a name is not applied to a line headed by its entry.
# UniProt O60493: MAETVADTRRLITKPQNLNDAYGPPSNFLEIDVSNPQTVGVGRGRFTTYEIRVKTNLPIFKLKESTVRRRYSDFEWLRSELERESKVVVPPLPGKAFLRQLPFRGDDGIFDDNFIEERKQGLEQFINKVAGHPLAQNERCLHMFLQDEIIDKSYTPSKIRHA
# UniProt P61019: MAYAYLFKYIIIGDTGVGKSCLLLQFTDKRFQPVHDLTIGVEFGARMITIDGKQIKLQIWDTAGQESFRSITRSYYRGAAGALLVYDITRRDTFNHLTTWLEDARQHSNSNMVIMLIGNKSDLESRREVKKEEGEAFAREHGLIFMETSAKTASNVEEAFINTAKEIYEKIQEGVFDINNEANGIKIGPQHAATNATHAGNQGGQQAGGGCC
# UniProt Q9H3P7: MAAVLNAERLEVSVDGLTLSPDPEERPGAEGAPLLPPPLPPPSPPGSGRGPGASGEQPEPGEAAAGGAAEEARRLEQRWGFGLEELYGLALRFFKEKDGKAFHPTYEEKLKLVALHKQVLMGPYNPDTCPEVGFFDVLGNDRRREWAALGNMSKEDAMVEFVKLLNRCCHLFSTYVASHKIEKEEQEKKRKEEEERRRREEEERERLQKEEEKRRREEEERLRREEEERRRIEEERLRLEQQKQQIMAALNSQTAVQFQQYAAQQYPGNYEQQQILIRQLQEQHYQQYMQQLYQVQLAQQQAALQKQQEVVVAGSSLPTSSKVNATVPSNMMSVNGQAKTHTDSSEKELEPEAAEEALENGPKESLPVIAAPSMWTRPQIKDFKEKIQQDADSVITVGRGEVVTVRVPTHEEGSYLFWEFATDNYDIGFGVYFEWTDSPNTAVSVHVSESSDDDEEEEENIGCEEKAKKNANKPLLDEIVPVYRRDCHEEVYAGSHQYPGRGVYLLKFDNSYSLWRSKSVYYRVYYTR
# UniProt O95271: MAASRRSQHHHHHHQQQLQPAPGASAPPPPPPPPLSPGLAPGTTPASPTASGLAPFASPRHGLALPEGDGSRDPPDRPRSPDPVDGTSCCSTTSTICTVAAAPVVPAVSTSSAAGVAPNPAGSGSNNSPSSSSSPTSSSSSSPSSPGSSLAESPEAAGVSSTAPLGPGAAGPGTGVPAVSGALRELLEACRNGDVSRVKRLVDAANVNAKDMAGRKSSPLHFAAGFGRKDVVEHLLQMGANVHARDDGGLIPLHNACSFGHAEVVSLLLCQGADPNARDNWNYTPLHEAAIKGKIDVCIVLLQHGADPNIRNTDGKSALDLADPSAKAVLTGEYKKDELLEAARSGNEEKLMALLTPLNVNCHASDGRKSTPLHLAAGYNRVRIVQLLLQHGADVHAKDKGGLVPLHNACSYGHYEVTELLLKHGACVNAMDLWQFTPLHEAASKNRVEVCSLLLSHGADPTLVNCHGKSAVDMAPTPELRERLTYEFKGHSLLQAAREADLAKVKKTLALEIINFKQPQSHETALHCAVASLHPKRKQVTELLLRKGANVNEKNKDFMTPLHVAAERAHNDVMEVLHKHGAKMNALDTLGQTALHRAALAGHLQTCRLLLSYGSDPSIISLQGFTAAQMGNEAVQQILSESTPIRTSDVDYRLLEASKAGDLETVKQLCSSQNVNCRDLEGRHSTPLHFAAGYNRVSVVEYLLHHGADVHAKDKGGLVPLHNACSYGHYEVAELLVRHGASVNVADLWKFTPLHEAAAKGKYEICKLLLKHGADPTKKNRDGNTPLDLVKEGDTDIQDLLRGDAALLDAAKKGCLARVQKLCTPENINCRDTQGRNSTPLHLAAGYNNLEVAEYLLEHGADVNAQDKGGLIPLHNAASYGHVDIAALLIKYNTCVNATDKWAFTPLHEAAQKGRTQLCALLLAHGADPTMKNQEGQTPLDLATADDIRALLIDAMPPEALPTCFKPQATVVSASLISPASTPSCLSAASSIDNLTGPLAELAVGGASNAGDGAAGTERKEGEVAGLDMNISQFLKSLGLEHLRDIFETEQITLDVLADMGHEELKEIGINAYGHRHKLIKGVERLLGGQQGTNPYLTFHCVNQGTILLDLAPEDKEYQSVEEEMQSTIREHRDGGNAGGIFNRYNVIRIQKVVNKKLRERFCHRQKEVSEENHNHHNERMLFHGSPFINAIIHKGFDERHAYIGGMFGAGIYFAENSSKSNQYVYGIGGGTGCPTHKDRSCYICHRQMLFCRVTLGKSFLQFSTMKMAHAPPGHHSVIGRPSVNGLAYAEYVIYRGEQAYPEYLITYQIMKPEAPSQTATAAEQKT
# Positions count from the first letter of the chain named. Like-named read-outs stand apart in the source and are kept apart here. No constants are given. Whether binding was seen depends on the method and setting. For some of these results: Binding seen in cells or lysates may run through a third protein. Some binding calls cover weakened binding; strength is not graded here. For some of these results: Tags and fused reporters may be left off the sequences shown.
# B1: Golgin-45(cc#1-3; 120-276aa), C-terminal 6xHis (domain or fragment, UniProt Q9H2G9 120-276)
# chain: NKELSEVKNVLEKLKNSERRLLQDKEGLSNQLRVQTEVNRELKKLLVASVGDDLQYHFERLAREKNQLILENEALGRNTAQLSEQLERMSIQCDVWRSKFLASRVMADELTNSRAALQRQNRDAHGAIQDLLSEREQFRQEMIATQKLLEELLVSLQ
# B2: GM130, endogenous (protein, UniProt Q08379 1-1002)
# chain: MWPQPRLPPRPAMSEETRQSKLAAAKKKLREYQQRNSPGVPTGAKKKKKIKNGSNPETTTSGGCHSPEDTPKDNAATLQPSDDTVLPGGVPSPGASLTSMAASQNHDADNVPNLMDETKTFSSTESLRQLSQQLNGLVCESATCVNGEGPASSANLKDLESRYQQLAVALDSSYVTNKQLNITIEKLKQQNQEITDQLEEEKKECHQKQGALREQLQVHIQTIGILVSEKAELQTALAHTQHAARQKEGESEDLASRLQYSRRRVGELERALSAVSTQQKKADRYNKELTKERDALRLELYKNTQSNEDLKQEKSELEEKLRVLVTEKAGMQLNLEELQKKLEMTELLLQQFSSRCEAPDANQQLQQAMEERAQLEAHLGQVMESVRQLQMERDKYAENLKGESAMWRQRMQQMSEQVHTLREEKECSMSRVQELETSLAELRNQMAEPPPPEPPAGPSEVEQQLQAEAEHLRKELEGLAGQLQAQVQDNEGLSRLNREQEERLLELERAAELWGEQAEARRQILETMQNDRTTISRALSQNRELKEQLAELQSGFVKLTNENMEITSALQSEQHVKRELGKKLGELQEKLSELKETVELKSQEAQSLQQQRDQYLGHLQQYVAAYQQLTSEKEVLHNQLLLQTQLVDQLQQQEAQGKAVAEMARQELQETQERLEAATQQNQQLRAQLSLMAHPGEGDGLDREEEEDEEEEEEEAVAVPQPMPSIPEDLESREAMVAFFNSAVASAEEEQARLRGQLKEQRVRCRRLAHLLASAQKEPEAAAPAPGTGGDSVCGETHRALQGAMEKLQSRFMELMQEKADLKERVEELEHRCIQLSGETDTIGEYIALYQSQRAVLKERHREKEEYISRLAQDKEEMKVKLLELQELVLRLVGDRNEWHGRFLAAAQNPADEPTSGAPAPQELGAANQQGDLCEVSLAGSVEPAQGEAREGSPRDNPTAQQIMQLLREMQNPRERPGLGSNPCIPFFYRADENDEVKITVI
# B3: Golgin97, endogenous (protein, UniProt Q92805 1-767)
# chain: MFAKLKKKIAEETAVAQRPGGATRIPRSVSKESVASMGADSGDDFASDGSSSREDLSSQLLRRNEQIRKLEARLSDYAEQVRNLQKIKEKLEIALEKHQDSSMRKFQEQNETFQANRAKMAEGLALALARKDQEWSEKMDQLEKEKNILTAQLQEMKNQSMNLFQRRDEMDELEGFQQQELSKIKHMLLKKEESLGKMEQELEARTRELSRTQEELMNSNQMSSDLSQKLEELQRHYSTLEEQRDHVIASKTGAESKITALEQKEQELQALIQQLSIDLQKVTAETQEKEDVITHLQEKVASLEKRLEQNLSGEEHLQELLKEKTLAEQNLEDTRQQLLAARSSQAKAINTLETRVRELEQTLQASEEQLQQSKGIVAAQETQIQELAAANQESSHVQQQALALEQQFLERTQALEAQIVALERTRAADQTTAEQGMRQLEQENAALKECRNEYERSLQNHQFELKKLKEEWSQREIVSVAMAQALEEVRKQREEFQQQAANLTAIIDEKEQNLREKTEVLLQKEQEILQLERGHNSALLQIHQLQAELEALRTLKAEEAAVVAEQEDLLRLRGPLQAEALSVNESHVTSRAMQDPVFQLPTAGRTPNGEVGAMDLTQLQKEKQDLEQQLLEKNKTIKQMQQRMLELRKTLQKELKIRPDNELFEVREKPGPEMANMAPSVTNNTDLTDAREINFEYLKHVVLKFMSCRESEAFHLIKAVSVLLNFSQEEENMLKETLEYKMSWFGSKPAPKGSIRPSISNPRIPWS
# Tests used:
# [1] = molecular target: T1, mCherry-Golgin45-V214/273A (human) (UniProt Q9H2G9); assay: co-IP; HeLa cells transfected with mCherry fusions; lysis in 25 mM HEPES pH 7.4, 150 mM NaCl, 1% NP-40; anti-RFP agarose beads 4 h at 4 °C; western blot for endogenous proteins
# T1 sequence: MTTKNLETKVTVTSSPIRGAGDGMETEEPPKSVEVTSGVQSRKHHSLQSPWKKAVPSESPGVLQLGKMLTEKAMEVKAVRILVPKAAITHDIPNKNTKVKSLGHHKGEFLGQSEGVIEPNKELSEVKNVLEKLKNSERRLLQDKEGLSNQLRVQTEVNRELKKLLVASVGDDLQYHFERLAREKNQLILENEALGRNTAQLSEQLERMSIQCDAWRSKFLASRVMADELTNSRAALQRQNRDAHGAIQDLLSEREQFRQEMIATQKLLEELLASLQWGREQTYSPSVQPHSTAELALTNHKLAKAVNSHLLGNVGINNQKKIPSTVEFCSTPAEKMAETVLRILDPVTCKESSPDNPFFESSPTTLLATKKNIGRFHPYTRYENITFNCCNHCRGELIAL
# mCherry-Golgin45 (human) [2] = molecular target: T2, mCherry-Golgin45 (human) (UniProt Q9H2G9); assay: as above
# T2 sequence: T1 sequence with A214V, A273V
# [3] = molecular target: mCherry tagged Sorting Nexin 3 (UniProt O60493); assay: as above
# [4] = molecular target: T3, GST-Golgin45 N70 ΔTBD (human) (UniProt Q9H2G9); assay: pull-down; 150 μg GST fusion protein on Glutathione-Sepharose 4B beads; 0.1 μM prey protein; 25 mM Hepes pH 7.4, 150 mM NaOAc, 0.2% Triton, 1 mM DTT; 4 °C, 2 h; western blot; both purified
# T3 sequence: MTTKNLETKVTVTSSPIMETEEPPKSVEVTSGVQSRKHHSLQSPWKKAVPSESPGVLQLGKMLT
# [5] = molecular target: T4, mCherry-Golgin45-ΔTBD (human) (UniProt Q9H2G9); assay: co-IP; HeLa cells transfected with mCherry fusions; lysis in 25 mM HEPES pH 7.4, 150 mM NaCl, 1% NP-40; anti-RFP agarose beads 4 h at 4 °C; western blot for endogenous proteins
# T4 sequence: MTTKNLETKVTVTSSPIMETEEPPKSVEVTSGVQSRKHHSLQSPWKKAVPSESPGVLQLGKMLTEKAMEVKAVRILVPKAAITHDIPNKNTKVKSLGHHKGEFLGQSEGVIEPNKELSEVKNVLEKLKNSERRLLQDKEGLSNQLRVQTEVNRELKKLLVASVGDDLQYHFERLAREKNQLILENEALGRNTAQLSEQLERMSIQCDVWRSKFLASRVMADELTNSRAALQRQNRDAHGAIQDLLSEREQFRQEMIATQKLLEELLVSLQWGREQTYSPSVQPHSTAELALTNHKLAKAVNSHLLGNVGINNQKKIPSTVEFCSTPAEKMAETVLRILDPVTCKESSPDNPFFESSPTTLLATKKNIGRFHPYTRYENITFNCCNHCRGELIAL
# GST-Rab2-GTPγS = GST-Rab2-GTPγS (UniProt P61019); assay: pull-down; GST-Rab on Glutathione-Sepharose 4B, EDTA treated and loaded with GTPγS (100 μM); 0.1 μM prey protein; 25 mM Hepes pH 7.4, 150 mM NaOAc, 25 mM Mg(OAc)2, 0.2% Triton, 1 mM DTT; 4 °C, 2 h; western blot; both purified
# mCherry-Golgin45 (human) [6] = molecular target: T2, mCherry-Golgin45 (human); assay: co-IP; HeLa cells transfected with mCherry fusions; lysis in 25 mM HEPES pH 7.4, 150 mM NaCl, 1% NP-40; anti-RFP agarose beads 4 h at 4 °C; western blot for endogenous proteins; remark: listed apart in the source
# [7] = molecular target: mCherry tagged Sorting Nexin 3 (UniProt O60493); assay: as above; remark: listed apart in the source
molecule,measurement,setting,value
"ACBD3, endogenous (from UniProt Q9H3P7 1-528)",binding,[1],binds
same,binding,mCherry-Golgin45 (human) [2],binds
same,binding,[3],no binding
TNKS1-Arc1 (183–335aa) (from UniProt O95271 183-335) (domain or fragment),binding,[4],no binding (tested: 0.1 μM)
TNKS1-Arc2 (336–489aa) (from UniProt O95271 336-489) (domain or fragment),binding,[4],no binding (tested: 0.1 μM)
TNKS1-Arc4 (654–806aa) (from UniProt O95271 654-806) (domain or fragment),binding,[4],no binding (tested: 0.1 μM)
TNKS1-Arc5 (807–961aa) (from UniProt O95271 807-961) (domain or fragment),binding,[4],no binding (tested: 0.1 μM)
"Tankyrase-1 (TNKS1), endogenous (from UniProt O95271 1-1327)",binding,[1],binds
same,binding,[5],no binding
same,binding,mCherry-Golgin45 (human) [2],binds
same,binding,[3],no binding
B1,binding,GST-Rab2-GTPγS,binds
B2,binding,mCherry-Golgin45 (human) [6],no binding
same,binding,[7],no binding
B3,binding,mCherry-Golgin45 (human) [6],no binding
same,binding,[7],no binding
